Measured values from patent publication EP4061322B1 (Institut des Sciences et Industries du Vivant et de …, priority 2019, dated 2021).
Some results were stated once for a whole list of compounds, not compound by compound.

How the values were obtained:
[1] = Photostability under UV exposure; type: physicochemical; conditions: Tableau 2; same test as for compounds 1 to 7 (λ 300 nm, P 8.32 W/m^2, one hour); listed as composé 11
Excerpt: La stabilité des composés 1 à 7 aux UV a été étudiée par soumission à une exposition (λ : 300 nm, P : 8.32 W/m^2) pendant une heure.
L'Avobenzone a été utilisée comme molécule de référence. Cette molécule est connue pour être […] sous exposition UV, ce qui n'est pas du tout le cas d'autres composés bio-sourcés.
La photostabilité des composés 8 à 11 a également été étudiée, de manière identique au test appliqué aux composés 1 à 7. Les résultats obtenus sont présentés dans le Tableau 2. […] Cette méthodologie a été appliquée à l'ensemble des molécules décrites ci-dessus. Tableau 2 : Stabilité des composés 8 à 11 soumis à une exposition aux UV.

[2] = UV-Vis absorption spectrum (anti-UVA and blue light properties); type: physicochemical; conditions: in ethanol at 10^-5 mol/L; Figure 2
Excerpt: Un spectre UV-Vis a été réalisé dans l'éthanol à 10^-5 mol/L pour les composés 1 à 7, qui sont des dérivés furaniques de l'acide de Medrum. L'Avobenzone, une molécule très largement utilisée comme filtre UVA dans les crèmes solaires, a été utilisée en tant que référence.
Cette méthodologie a été employée pour évaluer les propriétés anti-UV des composés 8 à 11, qui sont des dérivés phénoliques de l'acide de Medrum, des composés 12 à 15 qui sont des dérivés pyrroliques de l'acide de Meldrum, des composés 16 à 18 qui sont des dérivés vinylphénol de l'acide de Meldrum, le composé 19 qui est un dérivé vinylfurane de l'acide de Meldrum.

With COc1cc(C=C2C(=O)OC(C)(C)OC2=O)cc(OC)c1O the “Perte d'activité (%)” value [1] was “stabilités comparables à ceux obtenus avec les composés 1 à 7” and the “absorption UVA et lumière bleue (spectre UV-Vis)” value [2] was “comparables à ceux obtenus avec les composés 1 à 7”.
